No constants are given. Whether binding was seen depends on the method and setting. Some results given as binding are weak or reduced against the parent protein; the word gives no strength. Tags and fused reporters may be left off the sequences shown.
Molecular target: T1, human CCR10 (CCX CKR) with N-terminal FLAG epitope, stably expressed on HEK293 cells (human), Q9NPB9
T1 chain: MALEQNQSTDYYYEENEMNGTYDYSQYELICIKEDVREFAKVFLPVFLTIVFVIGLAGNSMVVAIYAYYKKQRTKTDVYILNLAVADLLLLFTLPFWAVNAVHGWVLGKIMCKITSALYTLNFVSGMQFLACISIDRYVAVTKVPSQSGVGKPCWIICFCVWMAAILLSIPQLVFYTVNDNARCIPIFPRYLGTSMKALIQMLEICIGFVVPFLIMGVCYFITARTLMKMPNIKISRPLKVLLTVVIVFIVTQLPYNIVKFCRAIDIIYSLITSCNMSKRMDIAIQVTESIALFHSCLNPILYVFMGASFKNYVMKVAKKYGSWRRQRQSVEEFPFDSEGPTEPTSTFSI
Experiment: summary of Example 1; assay for this ligand not described
Settings: remark: other sources report otherwise

B1: BLC, O43927 23-109 (ligand)
chain: VLEVYYTSLRCRCVQESSVFIPRRFIDRIQILPRGNGCPRKEIIVWKKNKSIVCVDPQAEWIQRMMEVLRKRSSSTLPVPVFKRKIP
binding: binds

Source: patent US6699677
